Part of at least one peptide drawing is inferred or uncertain, most often the ends. Square brackets hold non-standard residues; d marks the D form. Peptide text beside a SMILES is read from it. Leu(5,5,5,5',5',5'-F6) = N[C@@H](CC(C(F)(F)F)C(F)(F)F)C(=O)O
How the values were obtained:
[1] = system: Gram-positive (B. subtilis) and Gram-negative (E. coli) bacteria; assay: Antimicrobial activity (MIC), bacterium not separated in the sentence
[2] = molecular target: human GLP-1 receptor (hGLP1-R) (Homo sapiens, UniProt P43220); assay: cAMP formation in COS-7 cells with hGLP-1R (radioimmunoassay); assay type: cell-based; details: cAMP production

The chains behind the UniProt entries cited, without tags or fusion partners. Residues count along the entry.
UniProt P43220, 24-463: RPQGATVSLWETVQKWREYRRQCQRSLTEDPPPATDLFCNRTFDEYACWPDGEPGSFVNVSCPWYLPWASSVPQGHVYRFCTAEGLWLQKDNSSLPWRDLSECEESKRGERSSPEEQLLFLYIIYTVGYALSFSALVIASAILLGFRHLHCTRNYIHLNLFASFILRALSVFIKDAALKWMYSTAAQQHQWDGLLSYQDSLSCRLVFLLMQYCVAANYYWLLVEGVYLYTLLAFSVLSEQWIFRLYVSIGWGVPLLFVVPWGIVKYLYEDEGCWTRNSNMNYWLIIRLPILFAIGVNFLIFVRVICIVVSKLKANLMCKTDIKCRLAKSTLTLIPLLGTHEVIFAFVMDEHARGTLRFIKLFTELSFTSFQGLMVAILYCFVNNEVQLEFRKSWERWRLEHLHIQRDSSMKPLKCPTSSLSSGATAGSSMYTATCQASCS

## CC(C)C[C@H](NC(=O)CNC(=O)[C@H](C)NC(=O)[C@@H](N)CCCNC(=N)N)C(=O)N[C@@H](CCC(N)=O)C(=O)N[C@@H](Cc1ccccc1)C(=O)N1CCC[C@H]1C(=O)N[C@H](C(=O)NCC(=O)N[C@@H](CCCNC(=N)N)C(=O)N[C@H](C(=O)N[C@@H](Cc1c[nH]cn1)C(=O)N[C@@H](CCCNC(=N)N)C(=O)N[C@@H](CC(C(F)(F)F)C(F)(F)F)C(=O)N[C@@H](CC(C(F)(F)F)C(F)(F)F)C(=O)N[C@@H](CCCNC(=N)N)C(=O)N[C@@H](CCCCN)C(=O)O)C(C)C)C(C)C [BII5F2] (H-RAGLQFPVGRVHR[Leu(5,5,5,5',5',5'-F6)][Leu(5,5,5,5',5',5'-F6)]RK-OH)
[1]; relative to BII5
  fold more potent than the respective control (MIC): 4 fold

## CC[C@H](C)[C@H](NC(=O)[C@H](Cc1ccccc1)NC(=O)[C@H](CCC(=O)O)NC(=O)[C@H](CCCCN)NC(=O)[C@H](C)NC(=O)[C@H](C)NC(=O)[C@H](CCC(N)=O)NC(=O)CNC(=O)[C@H](CCC(=O)O)NC(=O)[C@H](CC(C)C)NC(=O)[C@H](Cc1ccc(O)cc1)NC(=O)[C@H](CO)NC(=O)[C@H](CO)NC(=O)[C@@H](NC(=O)[C@H](CC(=O)O)NC(=O)[C@H](CO)NC(=O)[C@@H](NC(=O)[C@H](Cc1ccccc1)NC(=O)[C@@H](NC(=O)CNC(=O)[C@H](CC(C(F)(F)F)C(F)(F)F)NC(=O)[C@H](CC(C(F)(F)F)C(F)(F)F)NC(=O)[C@@H](N)Cc1c[nH]cn1)[C@@H](C)O)[C@@H](C)O)C(C)C)C(=O)N[C@@H](C)C(=O)N[C@@H](Cc1c[nH]c2ccccc12)C(=O)N[C@@H](CC(C)C)C(=O)N[C@H](C(=O)N[C@@H](CCCCN)C(=O)NCC(=O)N[C@@H](CCCNC(=N)N)C(N)=O)C(C)C [Peptide F89]
[2]
  agonist type: partial agonist

## CC[C@H](C)[C@H](NC(=O)CN)C(=O)NCC(=O)N[C@@H](CCCCN)C(=O)N[C@@H](Cc1ccccc1)C(=O)N[C@@H](CC(C(F)(F)F)C(F)(F)F)C(=O)N[C@@H](Cc1c[nH]cn1)C(=O)N[C@@H](C)C(=O)N[C@@H](C)C(=O)N[C@@H](CCCCN)C(=O)N[C@@H](CCCCN)C(=O)N[C@@H](Cc1ccccc1)C(=O)N[C@@H](C)C(=O)N[C@@H](CCCCN)C(=O)N[C@@H](C)C(=O)N[C@@H](Cc1ccccc1)C(=O)N[C@H](C(=O)N[C@@H](C)C(=O)N[C@@H](CCC(=O)O)C(=O)N[C@@H](CC(C(F)(F)F)C(F)(F)F)C(=O)N[C@@H](CCSC)C(=O)N[C@@H](CC(N)=O)C(=O)N[C@@H](CO)C(N)=O)C(C)C [Peptide M2F2] (H-GIGKF[Leu(5,5,5,5',5',5'-F6)]HAAKKFAKAFVAE[Leu(5,5,5,5',5',5'-F6)]MNS-NH2)
[1]; relative to the parent/control peptide
  antimicrobial activity (MIC) relative to parent peptide, in words: similar

Source: patent US20090326196A1 (Trustees of Tufts College, priority 2006, published 2009)
